Further values from the same series stand in other lists.
System: angioedema in CSU patients
Test: Phase 2 CSU study: angioedema activity score over 7 days (AAS7)
Assay type: in vivo, human
Details: omalizumab-naïve, angioedema at baseline
Description: The study comprises a 12 week, randomized, double-blind, placebo-controlled, multi-center, dose-ranging efficacy and safety phase, followed by a 40 week open label extension (OLE) phase (see FIG. 1). The study consists of three phases and an optional OLE phase. […] The weekly angioedema activity score (AAS7) was proposed as a tertiary endpoint. […] Patients were to complete the AAS using the e-diary. The e-diary was to be used once daily on the same time of each day recording of participant's answers to the angioedema activity score over 7 days (AAS7) questionnaire.

CC(C)(C=C(C#N)C(=O)N1CCC[C@@H](n2nc(-c3ccc(Oc4ccccc4)cc3F)c3c(N)ncnc32)C1)N1CCN(C2COC2)CC1 [rilzabrutinib, (R)-2-[3-[4-amino-3-(2-fluoro-4-phenoxy-phenyl)pyrazolo[3,4-d]pyrimidin-1-yl]piperidine-1-carbonyl]-4-methyl-4-[4-(oxetan-3-yl)piperazin-1-yl]pent-2-enenitrile]
AAS7 Change difference for rilzabrutinib vs. placebo LS Mean (95% CI) (400 mg BID, Week 2): −7.43 (−19.15, 4.29) | AAS7 Change from baseline LS Mean (SE) (400 mg BID, Week 2): −26.11 (4.50) | AAS7 Change difference for rilzabrutinib vs. placebo LS Mean (95% CI) (400 mg BID, Week 3): −11.92 (−24.12, 0.27) | AAS7 Change from baseline LS Mean (SE) (400 mg BID, Week 3): −35.08 (4.66) | AAS7 Change difference for rilzabrutinib vs. placebo LS Mean (95% CI) (400 mg BID, Week 4): −15.05 (−26.84, −3.27) | AAS7 Change from baseline LS Mean (SE) (400 mg BID, Week 4): −34.90 (4.47) | AAS7 Change difference for rilzabrutinib vs. placebo LS Mean (95% CI) (400 mg BID, Week 5): −4.63 (−16.28, 7.02) | AAS7 Change from baseline LS Mean (SE) (400 mg BID, Week 5): −35.28 (4.45) | AAS7 Change difference for rilzabrutinib vs. placebo LS Mean (95% CI) (400 mg BID, Week 6): −8.84 (−21.64, 3.95) | AAS7 Change from baseline LS Mean (SE) (400 mg BID, Week 6): −36.17 (4.80) | AAS7 Change difference for rilzabrutinib vs. placebo LS Mean (95% CI) (400 mg BID, Week 7): −8.40 (−20.39, 3.59) | AAS7 Change from baseline LS Mean (SE) (400 mg BID, Week 7): −37.12 (4.53) | AAS7 Change difference for rilzabrutinib vs. placebo LS Mean (95% CI) (400 mg BID, Week 8): −13.38 (−25.33, −1.44) | AAS7 Change from baseline LS Mean (SE) (400 mg BID, Week 8): −41.30 (4.49) | AAS7 % Change difference for rilzabrutinib vs. placebo LS Mean (95% CI) (400 mg BID, Week 9): −27.62 (−59.82, 4.58) % | AAS7 Change difference for rilzabrutinib vs. placebo LS Mean (95% CI) (400 mg BID, Week 9): −12.36 (−23.79, −0.92) | AAS7 Change from baseline LS Mean (SE) (400 mg BID, Week 9): −40.15 (4.33) | AAS7 % Change difference for rilzabrutinib vs. placebo LS Mean (95% CI) (400 mg BID, Week 10): −16.22 (−60.13, 27.69) % | AAS7 Change difference for rilzabrutinib vs. placebo LS Mean (95% CI) (400 mg BID, Week 10): −10.43 (−22.69, 1.83) | AAS7 Change from baseline LS Mean (SE) (400 mg BID, Week 10): −38.01 (4.62) | AAS7 % Change difference for rilzabrutinib vs. placebo LS Mean (95% CI) (400 mg BID, Week 11): −24.83 (−55.17, 5.52) % | AAS7 Change difference for rilzabrutinib vs. placebo LS Mean (95% CI) (400 mg BID, Week 11): −9.58 (−21.83, 2.67) | AAS7 Change from baseline LS Mean (SE) (400 mg BID, Week 11): −41.52 (4.63) | AAS7 % Change difference for rilzabrutinib vs. placebo LS Mean (95% CI) (400 mg BID, Week 12): −24.94 (−53.17, 3.29) % | AAS7 % Change from baseline LS Mean (SE) (400 mg BID, Week 12): −86.30 (10.67) % | AAS7 Change difference for rilzabrutinib vs. placebo LS Mean (95% CI) (400 mg QPM, Week 2): −2.53 (−13.99, 8.94) | AAS7 Change from baseline LS Mean (SE) (400 mg QPM, Week 2): −21.21 (4.21) | AAS7 Change difference for rilzabrutinib vs. placebo LS Mean (95% CI) (400 mg QPM, Week 3): 1.31 (−10.66, 13.27) | AAS7 Change from baseline LS Mean (SE) (400 mg QPM, Week 3): −21.85 (4.38) | AAS7 Change difference for rilzabrutinib vs. placebo LS Mean (95% CI) (400 mg QPM, Week 4): −5.31 (−16.86, 6.24) | AAS7 Change from baseline LS Mean (SE) (400 mg QPM, Week 4): −25.16 (4.19) | AAS7 Change difference for rilzabrutinib vs. placebo LS Mean (95% CI) (400 mg QPM, Week 5): 2.08 (−9.37, 13.52) | AAS7 Change from baseline LS Mean (SE) (400 mg QPM, Week 5): −28.57 (4.18) | AAS7 Change difference for rilzabrutinib vs. placebo LS Mean (95% CI) (400 mg QPM, Week 6): 1.87 (−10.66, 14.40) | AAS7 Change from baseline LS Mean (SE) (400 mg QPM, Week 6): −25.45 (4.55) | AAS7 Change difference for rilzabrutinib vs. placebo LS Mean (95% CI) (400 mg QPM, Week 7): 6.71 (−5.27, 18.69) | AAS7 Change from baseline LS Mean (SE) (400 mg QPM, Week 7): −22.00 (4.38) | AAS7 Change difference for rilzabrutinib vs. placebo LS Mean (95% CI) (400 mg QPM, Week 8): −1.84 (−13.56, 9.89) | AAS7 Change from baseline LS Mean (SE) (400 mg QPM, Week 8): −29.76 (4.29) | AAS7 % Change difference for rilzabrutinib vs. placebo LS Mean (95% CI) (400 mg QPM, Week 9): −0.07 (−31.59, 31.45) % | AAS7 Change difference for rilzabrutinib vs. placebo LS Mean (95% CI) (400 mg QPM, Week 9): 2.00 (−9.20, 13.21) | AAS7 Change from baseline LS Mean (SE) (400 mg QPM, Week 9): −25.79 (4.12) | AAS7 % Change difference for rilzabrutinib vs. placebo LS Mean (95% CI) (400 mg QPM, Week 10): −4.23 (−47.40, 38.95) % | AAS7 % Change from baseline LS Mean (SE) (400 mg QPM, Week 10): −48.11 (15.70) % | AAS7 Change difference for rilzabrutinib vs. placebo LS Mean (95% CI) (400 mg QPM, Week 10): 0.84 (−10.97, 12.66) | AAS7 Change from baseline LS Mean (SE) (400 mg QPM, Week 10): −26.74 (4.35) | AAS7 % Change difference for rilzabrutinib vs. placebo LS Mean (95% CI) (400 mg QPM, Week 11): 6.27 (−23.29, 35.83) % | AAS7 % Change from baseline LS Mean (SE) (400 mg QPM, Week 11): −52.05 (10.68) % | AAS7 Change difference for rilzabrutinib vs. placebo LS Mean (95% CI) (400 mg QPM, Week 11): 4.36 (−7.60, 16.33) | AAS7 Change from baseline LS Mean (SE) (400 mg QPM, Week 11): −27.59 (4.31) | AAS7 % Change difference for rilzabrutinib vs. placebo LS Mean (95% CI) (400 mg QPM, Week 12): 8.71 (−19.46, 36.88) % | AAS7 % Change from baseline LS Mean (SE) (400 mg QPM, Week 12): −52.66 (10.25) % | AAS7 Change difference for rilzabrutinib vs. placebo LS Mean (95% CI) (400 mg TID, Week 2): −13.79 (−25.99, −1.60) | AAS7 Change from baseline LS Mean (SE) (400 mg TID, Week 2): −32.47 (4.53) | AAS7 Change difference for rilzabrutinib vs. placebo LS Mean (95% CI) (400 mg TID, Week 3): −13.01 (−25.71, −0.30) | AAS7 Change from baseline LS Mean (SE) (400 mg TID, Week 3): −36.16 (4.71) | AAS7 Change difference for rilzabrutinib vs. placebo LS Mean (95% CI) (400 mg TID, Week 4): −19.05 (−31.29, −6.81) | AAS7 Change from baseline LS Mean (SE) (400 mg TID, Week 4): −38.89 (4.51) | AAS7 Change difference for rilzabrutinib vs. placebo LS Mean (95% CI) (400 mg TID, Week 5): −8.94 (−21.03, 3.15) | AAS7 Change from baseline LS Mean (SE) (400 mg TID, Week 5): −39.59 (4.46) | AAS7 Change difference for rilzabrutinib vs. placebo LS Mean (95% CI) (400 mg TID, Week 6): −10.77 (−24.18, 2.64) | AAS7 Change from baseline LS Mean (SE) (400 mg TID, Week 6): −38.09 (4.88) | AAS7 Change difference for rilzabrutinib vs. placebo LS Mean (95% CI) (400 mg TID, Week 7): −8.96 (−21.57, 3.65) | AAS7 Change from baseline LS Mean (SE) (400 mg TID, Week 7): −37.68 (4.70) | AAS7 Change from baseline LS Mean (SE) (400 mg TID, Week 8): −39.04 (4.68) | AAS7 Change difference for rilzabrutinib vs. placebo LS Mean (95% CI) (400 mg TID, Week 9): −15.14 (−27.06, −3.23) | AAS7 Change from baseline LS Mean (SE) (400 mg TID, Week 9): −42.94 (4.44) | AAS7 % Change difference for rilzabrutinib vs. placebo LS Mean (95% CI) (400 mg TID, Week 10): −46.10 (−91.54, −0.67) % | AAS7 Change difference for rilzabrutinib vs. placebo LS Mean (95% CI) (400 mg TID, Week 10): −17.05 (−29.81, −4.29) | AAS7 Change from baseline LS Mean (SE) (400 mg TID, Week 10): −44.63 (4.75) | AAS7 % Change difference for rilzabrutinib vs. placebo LS Mean (95% CI) (400 mg TID, Week 11): −20.16 (−50.91, 10.58) % | AAS7 % Change from baseline LS Mean (SE) (400 mg TID, Week 11): −78.48 (11.38) % | AAS7 Change difference for rilzabrutinib vs. placebo LS Mean (95% CI) (400 mg TID, Week 11): −9.39 (−21.92, 3.13) | AAS7 Change from baseline LS Mean (SE) (400 mg TID, Week 11): −41.34 (4.63) | AAS7 % Change difference for rilzabrutinib vs. placebo LS Mean (95% CI) (400 mg TID, Week 12): −23.26 (−52.37, 5.85) % | AAS7 % Change from baseline LS Mean (SE) (400 mg TID, Week 12): −84.63 (10.83) % | AAS7 Change difference for rilzabrutinib vs. placebo LS Mean (95% CI) (400 mg TID, Week 12): −10.65 (−22.56, 1.26) | AAS7 Change from baseline LS Mean (SE) (400 mg TID, Week 12): −44.04 (4.42)

Reference: US20260256792A1, “TREATMENT OF CHRONIC SPONTANEOUS URTICARIA BY ADMINISTERING (R)-2-[3-[4-AMINO-3-(2-FLUORO-4-PHENOXY-PHENYL)PYRAZOLO[3,4-D]PYRIMIDIN-1-YL]PIPERIDINE-1-CARBONYL]-4-METHYL-4-[4-(OXETAN-3-YL)PIPERAZIN-1-YL]PENT-2-ENENITRILE” (priority 2023, published 2026)
